Results are given in words; binding and its absence hold for the method and conditions named. In cells and extracts the contact can be indirect. Some entries that bind do so weakly or less than the wild type.
Target: Glycogen Synthase Kinase 3 Beta (human (endogenous in AC16)) (UniProt P49841)
Assay: co-IP

By UniProt entry, the sequences of proteins in these tests, tags left out.
UniProt P49841: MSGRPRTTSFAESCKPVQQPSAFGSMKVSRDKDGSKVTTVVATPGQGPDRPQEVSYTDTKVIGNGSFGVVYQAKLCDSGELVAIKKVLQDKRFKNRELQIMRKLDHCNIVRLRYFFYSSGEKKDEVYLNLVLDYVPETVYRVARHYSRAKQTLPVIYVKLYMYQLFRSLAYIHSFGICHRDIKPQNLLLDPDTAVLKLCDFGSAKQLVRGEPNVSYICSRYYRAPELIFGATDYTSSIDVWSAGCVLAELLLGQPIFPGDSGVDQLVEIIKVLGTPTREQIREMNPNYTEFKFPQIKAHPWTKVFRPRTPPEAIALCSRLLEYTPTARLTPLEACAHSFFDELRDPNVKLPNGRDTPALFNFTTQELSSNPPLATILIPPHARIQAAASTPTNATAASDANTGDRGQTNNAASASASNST

B1: Disrupted-in-Schizophrenia 1 (DISC1) in human AC16 cardiomyocytes (protein, UniProt Q9NRI5 1-854)
chain: MPGGGPQGAPAAAGGGGVSHRAGSRDCLPPAACFRRRRLARRPGYMRSSTGPGIGFLSPAVGTLFRFPGGVSGEESHHSESRARQCGLDSRGLLVRSPVSKSAAAPTVTSVRGTSAHFGIQLRGGTRLPDRLSWPCGPGSAGWQQEFAAMDSSETLDASWEAACSDGARRVRAAGSLPSAELSSNSCSPGCGPEVPPTPPGSHSAFTSSFSFIRLSLGSAGERGEAEGCPPSREAESHCQSPQEMGAKAASLDGPHEDPRCLSRPFSLLATRVSADLAQAARNSSRPERDMHSLPDMDPGSSSSLDPSLAGCGGDGSSGSGDAHSWDTLLRKWEPVLRDCLLRNRRQMEVISLRLKLQKLQEDAVENDDYDKAETLQQRLEDLEQEKISLHFQLPSRQPALSSFLGHLAAQVQAALRRGATQQASGDDTHTPLRMEPRLLEPTAQDSLHVSITRRDWLLQEKQQLQKEIEALQARMFVLEAKDQQLRREIEEQEQQLQWQGCDLTPLVGQLSLGQLQEVSKALQDTLASAGQIPFHAEPPETIRSLQERIKSLNLSLKEITTKVCMSEKFCSTLRKKVNDIETQLPALLEAKMHAISGNHFWTAKDLTEEIRSLTSEREGLEGLLSKLLVLSSRNVKKLGSVKEDYNRLRREVEHQETAYETSVKENTMKYMETLKNKLCSCKCPLLGKVWEADLEACRLLIQSLQLQEARGSLSVEDERQMDDLEGAAPPIPPRLHSEDKRKTPLKVLEEWKTHLIPSLHCAGGEQKEESYILSAELGEKCEDIGKKLLYLEDQLHTAIHSHDEDLIQSLRRELQMVKETLQAMILQLQPAKEAGEREAAASCMTAGVHEAQA
binding: binds

B2: full length (FL) wild type DISC1 resistant to RNAi (DISC1-FL^R) (protein, UniProt Q9NRI5-1 1-854)
chain: MPGGGPQGAPAAAGGGGVSHRAGSRDCLPPAACFRRRRLARRPGYMRSSTGPGIGFLSPAVGTLFRFPGGVSGEESHHSESRARQCGLDSRGLLVRSPVSKSAAAPTVTSVRGTSAHFGIQLRGGTRLPDRLSWPCGPGSAGWQQEFAAMDSSETLDASWEAACSDGARRVRAAGSLPSAELSSNSCSPGCGPEVPPTPPGSHSAFTSSFSFIRLSLGSAGERGEAEGCPPSREAESHCQSPQEMGAKAASLDGPHEDPRCLSRPFSLLATRVSADLAQAARNSSRPERDMHSLPDMDPGSSSSLDPSLAGCGGDGSSGSGDAHSWDTLLRKWEPVLRDCLLRNRRQMEVISLRLKLQKLQEDAVENDDYDKAETLQQRLEDLEQEKISLHFQLPSRQPALSSFLGHLAAQVQAALRRGATQQASGDDTHTPLRMEPRLLEPTAQDSLHVSITRRDWLLQEKQQLQKEIEALQARMFVLEAKDQQLRREIEEQEQQLQWQGCDLTPLVGQLSLGQLQEVSKALQDTLASAGQIPFHAEPPETIRSLQERIKSLNLSLKEITTKVCMSEKFCSTLRKKVNDIETQLPALLEAKMHAISGNHFWTAKDLTEEIRSLTSEREGLEGLLSKLLVLSSRNVKKLGSVKEDYNRLRREVEHQETAYETSVKENTMKYMETLKNKLCSCKCPLLGKVWEADLEACRLLIQSLQLQEARGSLSVEDERQMDDLEGAAPPIPPRLHSEDKRKTPLKVLEEWKTHLIPSLHCAGGEQKEESYILSAELGEKCEDIGKKLLYLEDQLHTAIHSHDEDLIQSLRRELQMVKETLQAMILQLQPAKEAGEREAAASCMTAGVHEAQA
binding: binds
